Positions count from the first letter of the chain named. These are yes or no findings as the source states them, for the method shown. In cells and extracts the contact can be indirect. Some results given as binding are weak or reduced against the parent protein; the word gives no strength. Tags and fused reporters may be left off the sequences shown.
Target: T1, 6His-LpxBR201A (co-expressed) (Escherichia coli) (UniProt P10441)
T1 sequence: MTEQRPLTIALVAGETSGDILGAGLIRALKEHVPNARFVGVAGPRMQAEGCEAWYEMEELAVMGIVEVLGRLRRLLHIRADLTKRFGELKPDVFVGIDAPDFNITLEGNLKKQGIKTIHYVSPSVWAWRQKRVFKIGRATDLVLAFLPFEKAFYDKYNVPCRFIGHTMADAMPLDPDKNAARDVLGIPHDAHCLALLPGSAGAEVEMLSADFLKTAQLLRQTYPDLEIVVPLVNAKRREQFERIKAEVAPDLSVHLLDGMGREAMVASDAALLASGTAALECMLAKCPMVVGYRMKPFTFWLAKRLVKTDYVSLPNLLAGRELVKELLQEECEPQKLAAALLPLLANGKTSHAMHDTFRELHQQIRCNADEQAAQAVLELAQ
Test: pull-down; 6His-LpxBR201A co-expressed with untagged LpxBN316A in E. coli (pRSF-Duet-1), co-purified by the His tag in the presence of 0.2-2% Triton X-100

B1: LpxBN316A (untagged, co-expressed) (enzyme, UniProt P10441 1-382)
chain: T1 sequence with A201R, N316A
- binding: binds
